Results: patent US9113631B2, “1,3-diaryl-substituted heterocyclic pesticides” (E I DU PONT DE NEMOURS AND COMPANY, priority 2011, dated 2015)
Some entries share one result that the patent states for a list of compounds.

Legend:
[1] = test system: diamondback moth (Plutella xylostella); assay: Test A: control of diamondback moth on radish plant, foliar spray; type: in vivo; conditions: neonate larvae on radish plant, 6 days, 25° C., visually assessed
[2] = test system: fall armyworm (Spodoptera frugiperda); assay: Test B: control of fall armyworm on maize plant, foliar spray; type: in vivo; conditions: sprayed at 50 ppm; 1-day-old larvae on maize plant; 25° C.; visually rated

## O=C(N[C@H]1CCN(Cc2cn(-c3ccc(Cl)c(Cl)c3)nc2-c2ccc(F)cc2)C1)C1CC1 [Compound 869, N-[(3S)-1-[[1-(3,4-dichlorophenyl)-3-(4-fluorophenyl)-1H-pyrazol-4-yl]methyl]-3-pyrrolidinyl]cyclopropanecarboxamide]
[1]; sprayed at 50 ppm
  control efficacy, very good to excellent: feeding damage (40% or less feeding damage and/or 100% mortality): ≤ 40%
[2]
  control efficacy, very good to excellent: feeding damage (40% or less feeding damage and/or 100% mortality): ≤ 40%

## COC(=O)C1CCN(Cc2cn(-c3ccc(F)cc3F)nc2-c2ccc(C)cc2F)CC1 [Compound 16, methyl 1-[[1-(2,4-difluorophenyl)-3-(2-fluoro-4-methylphenyl)-1H-pyrazol-4-yl]methyl]-4-piperidinecarboxylate]
[1]; sprayed at 250 ppm
  control efficacy, very good to excellent: feeding damage (40% or less feeding damage and/or 100% mortality): ≤ 40%

## N#CC1CCN(Cc2cn(-c3cccc(C(F)(F)F)c3)nc2-c2ccc(F)cc2)CC1 [Compound 12, 1-[[3-(4-fluorophenyl)-1-[3-(trifluoromethyl)phenyl]-1H-pyrazol-4-yl]methyl]-4-piperidinecarbonitrile]
[1]; sprayed at 50 ppm
  control efficacy, very good to excellent: feeding damage (40% or less feeding damage and/or 100% mortality): ≤ 40%
[1]; sprayed at 250 ppm
  control efficacy, very good to excellent: feeding damage (40% or less feeding damage and/or 100% mortality): ≤ 40%
[2]
  control efficacy, very good to excellent: feeding damage (40% or less feeding damage and/or 100% mortality): ≤ 40%
